Screen size: about 400,000 compounds; about 13,000 (3.2%) were called active. This list was built around the results that the source calls inconclusive (neither active nor inactive); the mix of calls is not that of the screen. The call rests on the fitted dose curve; in most records, active means well fitted cell-killing curve with a large enough effect; inconclusive means small, poorly fitted or top-dose-only effect, or effect the other way; inactive means flat fitted curve, though single readings scatter. A potency beside an inconclusive call is a rough fit, not a confirmed value.
experiment: qHTS assay for MDR1-selective chemotherapeutics: Primary screen using the drug-selected MDR subline cells KB-V1; details: KB-V1 MDR cells viability, CellTiter-Glo, 72 h; series mostly up to 46.1 µM; further: nearly all actives have a fitted effect of over 60% in size
Outline: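 Potencies derive from concentration-effect curves fitted to normalized luminescence (CellTiter-Glo) of KB-V1 cells treated for 72 h at 37 degrees C in phenol-red-free DMEM containing 10% FBS.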
Potency means the concentration at half of the fitted maximal effect.

Structure (SMILES) | Potency
O=C(CN1CCN(Cc2ccccc2F)CC1)Nc1ccccc1Cl | inactive
Cc1ccc(SCCC(=O)Nc2ccc(Br)c(C)c2)cc1 | inconclusive: 23.1 µM [cytotoxic, single point]
CC(NC(=O)/C(C#N)=C/c1ccco1)c1ccccc1 (configuration not stated) | inactive
O=C(CSc1nc(-c2ccccc2)c(-c2ccccc2)[nH]1)Nc1nccs1 | inactive
O=C(c1ccc(SCc2ccco2)c([N+](=O)[O-])c1)N1CCOCC1 | inconclusive: 20.6 µM [cytotoxic, partial curve, poor fit]
CCn1c(O)c(N=NC(=O)c2ccc(CSc3nncn3C)cc2)c2ccccc21 | inconclusive: 4.11 µM [cytotoxic, partial curve, poor fit]
Cc1c(C(=O)NCc2ccc([N+](=O)[O-])cc2)sc(=O)n1Cc1ccc2c(c1)OCO2 | active: 14.6 µM
CC(C)(C)NS(=O)(=O)c1ccc2nc(NC(=O)Cc3cccs3)sc2c1 | inconclusive: 29.1 µM [cytotoxic, single point]
O=C(NCCc1cn2ccccc2n1)C1CCCCC1 | inactive
Cc1cccc(Nc2nc(NC(C)C)nc(Oc3ccc(=O)n(C)n3)n2)c1 | active: 8.2 µM
O=C(CCN1C(=O)C2C3CCC(C3)C2C1=O)OCC(=O)c1ccc(Br)cc1 (configuration not stated) | inconclusive: 29.1 µM [rising, single point]
CN1CCN(/N=C/c2nc(-c3ccccc3Cl)n3ccccc23)CC1 | inconclusive: 16.4 µM [cytotoxic, partial curve, poor fit]
CCc1nc2ccc(C(=O)Nc3ccc(OC)c(OC)c3)cn2c1N(C)Cc1nccs1 | inconclusive: 10.3 µM [cytotoxic, partial curve, poor fit]
CCOC(=O)c1noc2ncn(Cc3cccc(C#N)c3)c(=O)c12 | inconclusive: 0.146 µM [rising, full curve, poor fit]
COC(=O)C1=C(C)N(c2ccc(OC)c(OC)c2)C(=O)/C1=C\c1ccco1 | inconclusive: 29.1 µM [cytotoxic, single point]
CCCn1ncc(CN2CCC(Cc3cccc(F)c3)(C(=O)OCC)CC2)c1C | inconclusive: 2.59 µM [cytotoxic, partial curve, poor fit]
CCOC(=O)c1ccc(NC(=O)c2c(N)n(C)c(=O)[nH]c2=O)cc1 | inconclusive: 16.4 µM [rising, single point]
CC(C)C[C@H](N)c1nnc(S(=O)(=O)Cc2cccc(F)c2)o1 | inactive
O=C(CSc1cccc(C(F)(F)F)c1)N1CCN(S(=O)(=O)c2ccccc2)CC1 | inconclusive: 29.1 µM [cytotoxic, single point]
COc1cccc(NC(=O)Nc2nc(-c3ccc(OC)c(OC)c3)cs2)c1 | inconclusive: 23.1 µM [cytotoxic, partial curve, poor fit]
CCOC(=O)c1ccccc1NC(=O)c1c(O)c2ccccc2n(CC)c1=O | inconclusive: 16.4 µM [cytotoxic, single point]

Entries shown so far that have an NH in an aromatic ring (two):
Structure (SMILES) | Potency
O=C(CSc1nc(-c2ccccc2)c(-c2ccccc2)[nH]1)Nc1nccs1 | inactive
CCOC(=O)c1ccc(NC(=O)c2c(N)n(C)c(=O)[nH]c2=O)cc1 | inconclusive: 16.4 µM [rising, single point]

Additional entries.

Structure (SMILES) | Potency
CCc1nnc(NC(=O)CSc2ncc(-c3ccccc3)n2C)s1 | inconclusive: 8.2 µM [cytotoxic, partial curve, poor fit]
CC(=O)c1ccc(N2C(=O)[C@@H]3[C@H](C2=O)[C@H]2c4ccccc4C=NN2[C@@H]3C(C)=O)cc1 | inactive
O=C(c1ccccc1NS(=O)(=O)c1ccccc1)N1CCCCCC1 | inconclusive: 23.1 µM [cytotoxic, single point]
O=C(C1CCN(S(=O)(=O)c2cnc[nH]2)CC1)N(CCc1ccccc1)Cc1ccccc1 | inconclusive: 0.013 µM [cytotoxic, full curve]
Cc1[nH]c2ccc(C(=O)NCc3ccccn3)cc2c1C | inactive
O=C1CCCN1CCCNS(=O)(=O)c1ccc(F)c(F)c1 | inconclusive: 23.1 µM [rising, partial curve, poor fit]
O=C1CCCCCC[C@@H](O)[C@H](O)C[C@H](c2ccccc2)O1 | inconclusive: 7.31 µM [cytotoxic, partial curve]
COc1ccc(CN2CCN(C(=O)c3ccc(S(=O)(=O)N4CCCCCC4)cc3)CC2)cc1 | active: 2.31 µM
COc1ccccc1CN(Cc1ccco1)c1cnc(S(C)(=O)=O)nc1C(=O)Nc1ccccc1Cl | inconclusive: 1.84 µM [cytotoxic, partial curve]
Cc1cc(NC(=O)CSc2nc(-c3cccs3)nc3ccccc23)no1 | inconclusive: 20.6 µM [cytotoxic, single point]
CNC(=O)C1CC(=O)N(Cc2ccc3c(c2)OCO3)C(=Nc2ccc(F)cc2)S1 (configuration not stated) | inconclusive: 4.61 µM [cytotoxic, partial curve, poor fit]
COc1ccc(NC(=O)CSc2nc(-c3ccc(OC)c(OC)c3)[nH]c2-c2ccc(C)cc2)cc1 | inactive
C#CCn1c2ccccc2c2nc3ccccc3nc21 | active: 18.4 µM
Cc1c(C(=O)Nc2nc3ccccc3[nH]2)oc2c(Cl)cccc12 | inconclusive: 18.4 µM [cytotoxic, single point]
O=C(NC(=S)Nc1cccc(Cl)c1N1CCCCC1)c1cccs1 | inconclusive: 25.9 µM [cytotoxic, single point]
O=C1N[C@@H](Cc2ccccc2)COC(=O)[C@@H](Cc2ccc(F)cc2)C/C=C\C[C@@H]1CC(=O)N(CCO)Cc1ccccc1 | inconclusive: 20.6 µM [cytotoxic, single point]
COc1ccc(NC(=O)C(C)N2c3cccc4cccc(c34)S2(=O)=O)cc1 (configuration not stated) | inactive
O=C(/C=C/c1ccc2c(c1)OCO2)NCC1CCCO1 (configuration not stated) | inconclusive: 29.1 µM [rising, single point]
Cc1nc2c3ccccc3n(Cc3ccccc3F)c2s1 | inconclusive: 1.16 µM [rising, full curve, poor fit]
Nc1cc(S(=O)(=O)N2CCOCC2)ccc1N1CCCCC1 | inactive
CCCC1=Nc2cc(C(=O)NCC(C)c3ccccc3)ccc2Sc2ccccc21 (configuration not stated) | inconclusive: 23.1 µM [cytotoxic, single point]

Reference: PubChem BioAssay AID1347076 (National Center for Advancing Translational Sciences (NCATS), 2019)
